Source: the supplement of paper PMC8728848
Some of the results follow.

Key:
Test in all cases: glycan array binding signal (z-score within array); higher = stronger binding
Conditions in all cases: glycan notation: IUPAC condensed, linker removed
[1] = biological target: Gal3S(b1-3)[Fuc(a1-4)]GlcNAc
Outline: (§1)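 Glycan array data came from 3228 arrays in the Consortium for Functional Glycomics database, and only arrays with an available protein sequence were kept. Glycan names were put into IUPAC-condensed notation, and columns mapping to the same glycan were averaged. The binding signal is a within-array Z-score, averaged across arrays of one protein sequence run at different concentrations or buffers and across linkers. A negative Z-score can be read as non-binding.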

Gal3S(b1-4)Glc = biological target: Gal3S(b1-4)Glc
Outline: as §1

Gal3S(b1-4)Glc6S = biological target: Gal3S(b1-4)Glc6S
Outline: as §1

Gal3S(b1-4)GlcNAc = biological target: Gal3S(b1-4)GlcNAc
Outline: as §1

Gal3S(b1-4)GlcNAc6S = biological target: Gal3S(b1-4)GlcNAc6S
Outline: as §1

[2] = biological target: Gal3S(b1-4)[Fuc(a1-3)]Glc
Outline: as §1

[3] = biological target: Gal3S(b1-4)[Fuc(a1-3)]Glc6S
Outline: as §1

Gal3S4S(b1-4)GlcNAc = biological target: Gal3S4S(b1-4)GlcNAc
Outline: as §1

Gal3S6S(b1-4)GlcNAc = biological target: Gal3S6S(b1-4)GlcNAc
Outline: as §1

Gal3S6S(b1-4)GlcNAc6S = biological target: Gal3S6S(b1-4)GlcNAc6S
Outline: as §1

Gal4S(b1-4)GlcNAc = biological target: Gal4S(b1-4)GlcNAc
Outline: as §1

Gal4S6S(b1-4)GlcNAc = biological target: Gal4S6S(b1-4)GlcNAc
Outline: as §1

Gal6S(b1-3)GlcNAc = biological target: Gal6S(b1-3)GlcNAc
Outline: as §1

Gal6S(b1-3)GlcNAc6S = biological target: Gal6S(b1-3)GlcNAc6S
Outline: as §1

Gal6S(b1-4)Glc = biological target: Gal6S(b1-4)Glc
Outline: as §1

Gal6S(b1-4)Glc6S = biological target: Gal6S(b1-4)Glc6S
Outline: as §1

Gal6S(b1-4)GlcNAc = biological target: Gal6S(b1-4)GlcNAc
Outline: as §1

Gal6S(b1-4)GlcNAc6S = biological target: Gal6S(b1-4)GlcNAc6S
Outline: as §1

GalNAc(a1-3)Gal = biological target: GalNAc(a1-3)Gal
Outline: as §1

GalNAc(a1-3)GalNAc = biological target: GalNAc(a1-3)GalNAc
Outline: as §1

[4] = biological target: GalNAc(a1-3)GalNAc(a1-3)Gal(a1-4)Gal(b1-4)GlcNAc
Outline: as §1

[5] = biological target: GalNAc(a1-3)GalNAc(b1-3)Gal(a1-4)Gal(b1-4)Glc
Outline: as §1

GalNAc(b1-3)Gal = biological target: GalNAc(b1-3)Gal
Outline: as §1

[6] = biological target: GalNAc(b1-3)Gal(a1-4)Gal(b1-4)GlcNAc
Outline: as §1

[7] = biological target: GalNAc(b1-3)Gal(a1-4)Gal(b1-4)GlcNAc(b1-3)Gal(b1-4)Glc
Outline: as §1

[8] = biological target: GalNAc(b1-3)Gal(a1-6)Gal(b1-4)Glc
Outline: as §1

GalNAc(b1-3)GalNAc = biological target: GalNAc(b1-3)GalNAc
Outline: as §1

GalNAc(b1-4)Gal(b1-4)Glc = biological target: GalNAc(b1-4)Gal(b1-4)Glc
Outline: as §1

GalNAc(b1-4)GlcNAc = biological target: GalNAc(b1-4)GlcNAc
Outline: as §1

[9] = biological target: GalNAc(b1-4)GlcNAc(b1-2)Man(a1-3)[GalNAc(b1-4)GlcNAc(b1-2)Man(a1-6)]Man(b1-4)GlcNAc(b1-4)GlcNAc
Outline: as §1

B1: RetS (Pseudomonas aeruginosa), Q9HUV7 (protein)
chain: MVRLRIAIGLLVSFLLLLLGPMSPAVADDAGVSSVPLQTTATTPSANQNWRLLRDESAQLRIADVLQRKEQFRPLAKRSFIFPASPQAVWLQVQLPAQKVPSWLWIFAPRVQYLDYYLVQDGQLVRDQHTGESRPFQERPLPSRSYLFSLPVDGKPMTLYVRMTSNHPLMAWFDQIDEAGLVGLEKPAYAFGMLLGGMLLLLMYNLIRFAYSRSASSLWLAAVHAALAVCAAANLGLVAFWLPGLKFNQSLTADLGALGAAVSLLWFACSFFRGTAESRLNRLLQGEALLILAVGAIIAFTQQLWFSWLIYLLVILSSLSVPLIAAWHWYRGYQPARLIVAGMIVFNAGFMVFLPVLFGTKQLDPGWLVLGVFSFATLAGLVLSVSLTERQRLIQQLNLQQRTSEAAHTAELQTKAEFLAKISHEIRTPMNGVLGMTELLLGTPLSAKQRDYVQTIHSAGNELLTLINEILDISKLESGQIELDEVQFDLNALIEDCLDIFRVKAEQQRIELISFTQPQVPRVIGGDPTRLRQVVLSLLDNAFKQTEEGEILLVVALDDQGETPRLRIAVQDSGHPFDAKEREALLTAELHSGDFLSASKLGSHLGLIIARQLVRLMGGEFGIQSGSSQGTTLSLTLPLDPQQLENPTADLDGPLQGARLLVVDDNETCRKVLVQQCSGWGLNVSAVSSGKEALAQLRTKAHLREYFDVVLLDQDMPGMTGMQLAAKIKEDPNLNHDILLIMLTGISNAPSKIIARNAGIKRILAKPVAGYTLKATLADELAQRGVSGVTNYLQPAKEAQAPSLPSDFRILVAEDNSISTKVIRGMLNKLNLQPDTASNGQEALSAMKATQYDLVLMDCEMPVLDGFSATEQLRAWEAHEQRPHTPVVALTAHILSEHKERARLVGMDGHMAKPVELSQLRELIAYWVGERDRRRQGDALPS
Q: Which results are given for B1?
A: glycan array binding signal (z-score) [1]: 0.75; glycan array binding signal (z-score) (Gal3S(b1-4)Glc): -0.308; glycan array binding signal (z-score) (Gal3S(b1-4)Glc6S): 0.403; glycan array binding signal (z-score) (Gal3S(b1-4)GlcNAc): 1.15; glycan array binding signal (z-score) (Gal3S(b1-4)GlcNAc6S): -0.988; glycan array binding signal (z-score) [2]: -0.57; glycan array binding signal (z-score) [3]: 0.045; glycan array binding signal (z-score) (Gal3S4S(b1-4)GlcNAc): -0.457; glycan array binding signal (z-score) (Gal3S6S(b1-4)GlcNAc): -0.562; glycan array binding signal (z-score) (Gal3S6S(b1-4)GlcNAc6S): 0.84; glycan array binding signal (z-score) (Gal4S(b1-4)GlcNAc): -0.699; glycan array binding signal (z-score) (Gal4S6S(b1-4)GlcNAc): 0.028; glycan array binding signal (z-score) (Gal6S(b1-3)GlcNAc): 0.626; glycan array binding signal (z-score) (Gal6S(b1-3)GlcNAc6S): -1.69; glycan array binding signal (z-score) (Gal6S(b1-4)Glc): -0.084; glycan array binding signal (z-score) (Gal6S(b1-4)Glc6S): -0.756; glycan array binding signal (z-score) (Gal6S(b1-4)GlcNAc): -0.462; glycan array binding signal (z-score) (Gal6S(b1-4)GlcNAc6S): 0.341; glycan array binding signal (z-score) (GalNAc(a1-3)Gal): -0.593; glycan array binding signal (z-score) (GalNAc(a1-3)GalNAc): -0.917; glycan array binding signal (z-score) [4]: -0.424; glycan array binding signal (z-score) [5]: 0.419; glycan array binding signal (z-score) (GalNAc(b1-3)Gal): -0.593; glycan array binding signal (z-score) [6]: 1.47; glycan array binding signal (z-score) [7]: 0.224; glycan array binding signal (z-score) [8]: -0.305; glycan array binding signal (z-score) (GalNAc(b1-3)GalNAc): 0.75; glycan array binding signal (z-score) (GalNAc(b1-4)Gal(b1-4)Glc): 1.21; glycan array binding signal (z-score) (GalNAc(b1-4)GlcNAc): 0.31; glycan array binding signal (z-score) [9]: -0.726
